# Results from PMC13375126.
# Protein sequences, listed by entry. Tags and fused reporters are not part of them. Lines headed by an entry give the natural chain unless they say otherwise; changes in a name come on top.
# UniProt A0A640KW67: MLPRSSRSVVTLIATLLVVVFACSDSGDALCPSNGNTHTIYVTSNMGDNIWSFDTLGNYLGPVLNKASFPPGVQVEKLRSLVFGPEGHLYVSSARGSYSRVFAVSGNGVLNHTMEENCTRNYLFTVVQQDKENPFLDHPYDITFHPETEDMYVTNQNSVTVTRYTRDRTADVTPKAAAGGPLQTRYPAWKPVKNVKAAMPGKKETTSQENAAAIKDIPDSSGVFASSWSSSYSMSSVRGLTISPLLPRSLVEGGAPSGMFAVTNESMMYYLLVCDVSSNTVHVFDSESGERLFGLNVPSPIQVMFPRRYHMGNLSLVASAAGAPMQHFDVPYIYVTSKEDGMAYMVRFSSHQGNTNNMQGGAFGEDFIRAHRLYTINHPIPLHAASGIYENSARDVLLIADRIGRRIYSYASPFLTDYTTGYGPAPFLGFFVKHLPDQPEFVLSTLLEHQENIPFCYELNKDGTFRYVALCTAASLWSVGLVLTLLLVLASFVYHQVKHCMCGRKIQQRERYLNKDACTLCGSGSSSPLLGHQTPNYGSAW
# UniProt A0A640KN15: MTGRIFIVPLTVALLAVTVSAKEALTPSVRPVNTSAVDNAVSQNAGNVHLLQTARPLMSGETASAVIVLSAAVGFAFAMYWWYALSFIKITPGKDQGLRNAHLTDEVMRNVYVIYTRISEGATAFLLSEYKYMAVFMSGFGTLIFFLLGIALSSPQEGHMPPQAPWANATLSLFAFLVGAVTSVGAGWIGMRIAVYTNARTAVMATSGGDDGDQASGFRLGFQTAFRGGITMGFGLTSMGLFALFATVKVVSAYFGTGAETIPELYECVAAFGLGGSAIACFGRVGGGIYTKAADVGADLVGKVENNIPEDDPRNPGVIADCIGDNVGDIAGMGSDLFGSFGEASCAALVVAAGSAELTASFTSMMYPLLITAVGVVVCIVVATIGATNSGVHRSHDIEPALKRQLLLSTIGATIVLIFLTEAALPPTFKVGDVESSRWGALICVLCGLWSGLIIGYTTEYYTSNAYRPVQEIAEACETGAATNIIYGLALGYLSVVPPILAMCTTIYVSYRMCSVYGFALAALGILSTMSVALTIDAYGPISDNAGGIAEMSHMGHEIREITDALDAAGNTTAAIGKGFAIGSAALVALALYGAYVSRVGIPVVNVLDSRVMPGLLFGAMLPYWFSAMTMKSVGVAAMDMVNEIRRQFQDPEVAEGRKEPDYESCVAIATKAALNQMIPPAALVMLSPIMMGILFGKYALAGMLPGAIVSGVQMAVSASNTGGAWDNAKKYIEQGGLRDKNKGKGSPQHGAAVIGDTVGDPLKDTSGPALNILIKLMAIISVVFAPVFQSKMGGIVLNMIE
# These are yes or no findings as the source states them, for the method shown. Binding seen in cells or lysates may run through a third protein. A result given as binding can be weak or reduced; the word gives no strength.
# Target: T1, mNG-LtVtc4 (L. tarentolae)
# T1 sequence: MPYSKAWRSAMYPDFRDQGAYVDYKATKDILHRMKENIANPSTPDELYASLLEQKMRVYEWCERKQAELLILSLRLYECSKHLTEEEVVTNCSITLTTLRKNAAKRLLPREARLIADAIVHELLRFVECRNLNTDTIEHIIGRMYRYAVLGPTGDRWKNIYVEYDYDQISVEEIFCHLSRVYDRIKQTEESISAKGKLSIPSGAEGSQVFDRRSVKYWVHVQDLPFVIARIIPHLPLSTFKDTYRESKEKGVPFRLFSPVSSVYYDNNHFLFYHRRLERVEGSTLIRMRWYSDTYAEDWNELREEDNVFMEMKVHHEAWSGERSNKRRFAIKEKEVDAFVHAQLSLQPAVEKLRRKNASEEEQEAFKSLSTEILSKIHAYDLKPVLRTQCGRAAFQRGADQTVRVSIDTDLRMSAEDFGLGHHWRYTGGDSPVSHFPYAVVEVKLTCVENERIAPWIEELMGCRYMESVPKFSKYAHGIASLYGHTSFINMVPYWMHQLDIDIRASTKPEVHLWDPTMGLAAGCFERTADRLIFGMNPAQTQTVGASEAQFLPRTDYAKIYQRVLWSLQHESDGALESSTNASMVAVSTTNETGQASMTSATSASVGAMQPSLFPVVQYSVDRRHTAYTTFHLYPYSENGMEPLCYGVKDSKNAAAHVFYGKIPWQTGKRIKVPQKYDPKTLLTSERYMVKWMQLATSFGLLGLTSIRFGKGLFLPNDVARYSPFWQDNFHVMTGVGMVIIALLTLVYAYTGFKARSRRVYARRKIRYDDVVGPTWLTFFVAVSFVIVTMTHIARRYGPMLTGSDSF
# Assay: pull-down; mNeonGreen-Trap agarose beads capture mNG-LtVtc4 from 1% DDM-solubilised lysate of L. tarentolae that also express the mCh-tagged candidate; overnight, 4 °C; 50 mM HEPES pH 7.5, 150 mM NaCl, 1 mM IP6, 1 mM DTT; washes with 0.05% DDM; SDS-PAGE with in-gel fluorescence
row,binding,Substance
1,no binding,mCh-IP3R (L. tarentolae)
2,binds,mCh-LtVBP2 (from UniProt A0A640KW67)
3,no binding,mCh-LtmPPase (from UniProt A0A640KN15)
